The entries are a selection whose mix differs from that of the whole data set. At the low end of the ranking the order means little.
Columns and labels:
Test in all cases: DAPPL (digital affinity profiling via proximity ligation, sequencing)
Conditions in all cases: 10 mM Tris-HCl pH 7.5, 50 mM NaCl, 1 mM DTT, 4% glycerol, room temperature, 30 min; GST-TFs on glutathione beads, 16-mer random dsDNA library, 0.1% …; high values mean tight binding; double strand, one strand shown; scale: fold enrichment (6-mer frequency, TF over GST control)
ELK3 = molecular target: T1, ELK3 (UniProt P41970)
T1 sequence: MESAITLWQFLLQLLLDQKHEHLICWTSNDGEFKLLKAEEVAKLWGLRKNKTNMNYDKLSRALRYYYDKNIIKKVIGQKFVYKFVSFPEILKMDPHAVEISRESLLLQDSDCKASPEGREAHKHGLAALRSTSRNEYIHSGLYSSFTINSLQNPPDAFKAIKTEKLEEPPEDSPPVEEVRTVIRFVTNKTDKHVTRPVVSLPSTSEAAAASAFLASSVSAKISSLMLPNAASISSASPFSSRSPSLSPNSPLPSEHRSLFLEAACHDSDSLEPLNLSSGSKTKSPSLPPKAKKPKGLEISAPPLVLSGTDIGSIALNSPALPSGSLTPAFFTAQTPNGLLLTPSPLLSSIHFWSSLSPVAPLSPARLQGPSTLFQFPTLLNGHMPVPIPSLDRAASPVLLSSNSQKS

ETS2 = molecular target: T2, ETS2 (UniProt P15036)
T2 sequence: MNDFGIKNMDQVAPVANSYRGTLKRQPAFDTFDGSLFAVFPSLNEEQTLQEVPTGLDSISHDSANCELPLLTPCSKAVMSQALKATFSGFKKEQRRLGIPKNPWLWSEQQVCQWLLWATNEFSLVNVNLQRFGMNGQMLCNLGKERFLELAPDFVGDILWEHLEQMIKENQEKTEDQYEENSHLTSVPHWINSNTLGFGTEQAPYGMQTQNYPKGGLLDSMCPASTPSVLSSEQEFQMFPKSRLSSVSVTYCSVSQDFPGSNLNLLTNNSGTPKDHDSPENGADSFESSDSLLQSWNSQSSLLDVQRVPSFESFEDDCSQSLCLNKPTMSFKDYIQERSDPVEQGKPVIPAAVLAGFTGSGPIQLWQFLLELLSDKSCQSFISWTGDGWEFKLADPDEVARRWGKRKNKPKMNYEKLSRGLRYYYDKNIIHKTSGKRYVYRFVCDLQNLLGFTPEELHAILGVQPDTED

ETV3 = molecular target: T3, ETV3 (UniProt P41162-2)
T3 sequence: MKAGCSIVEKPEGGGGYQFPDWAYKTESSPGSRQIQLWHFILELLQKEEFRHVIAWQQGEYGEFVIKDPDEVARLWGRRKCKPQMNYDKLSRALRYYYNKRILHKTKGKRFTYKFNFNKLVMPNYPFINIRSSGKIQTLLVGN

CAGATG
binding signal (ELK3): 0.964
binding signal (ETS2): 1.05

ACTAGA
binding signal (ELK3): 0.951
binding signal (ETS2): 0.921
binding signal (ETV3): 0.96

CGGCAT
binding signal (ELK3): 1.09
binding signal (ETS2): 1.17
binding signal (ETV3): 1.19

GTACGA
binding signal (ELK3): 0.967
binding signal (ETS2): 0.993
binding signal (ETV3): 0.971

AATACG
binding signal (ELK3): 1.26
binding signal (ETS2): 1.28

GCCGAT
binding signal (ELK3): 1.08
binding signal (ETS2): 0.897

GCCCTG
binding signal (ELK3): 0.911
binding signal (ETS2): 0.971

AGCTCT
binding signal (ELK3): 1.15
binding signal (ETS2): 1.16

ACGGCA
binding signal (ELK3): 1.01
binding signal (ETS2): 1.09
binding signal (ETV3): 1.06

TGCATG
binding signal (ELK3): 1.14
binding signal (ETS2): 1.06

ACACCA
binding signal (ELK3): 0.89
binding signal (ETS2): 0.976

TGAATC
binding signal (ELK3): 0.956
binding signal (ETS2): 0.998
binding signal (ETV3): 1.01

ACAGCC
binding signal (ELK3): 0.976
binding signal (ETS2): 1.03
binding signal (ETV3): 1.04

TAGGTC
binding signal (ELK3): 1.08
binding signal (ETS2): 0.99

TAGCGT
binding signal (ELK3): 0.856
binding signal (ETS2): 0.99

TATAAA
binding signal (ELK3): 1.26
binding signal (ETS2): 1.27

AAAGCC
binding signal (ELK3): 0.98
binding signal (ETS2): 0.923
binding signal (ETV3): 1.05

TACGCG
binding signal (ELK3): 1.28
binding signal (ETS2): 1.14

TTTCCA
binding signal (ELK3): 1.31
binding signal (ETS2): 1.38
binding signal (ETV3): 1.45

TTGCCC
binding signal (ELK3): 1.23
binding signal (ETS2): 1.43

CCCCGA
binding signal (ELK3): 0.946
binding signal (ETS2): 1.07

TGGTGG
binding signal (ELK3): 1.22
binding signal (ETS2): 1.08
binding signal (ETV3): 0.983

CGCGCG
binding signal (ELK3): 1.04
binding signal (ETS2): 0.962

TCGTAT
binding signal (ELK3): 1.01
binding signal (ETS2): 0.958
binding signal (ETV3): 1.05

CCGAGC
binding signal (ELK3): 0.986
binding signal (ETS2): 1.17

TCCGCG
binding signal (ELK3): 1.14
binding signal (ETS2): 1.36

CCACCC
binding signal (ELK3): 1.23
binding signal (ETS2): 1.18

GTTGCT
binding signal (ELK3): 1.25
binding signal (ETV3): 1.51

ATGTTA
binding signal (ETV3): 1.23

ATTTAG
binding signal (ELK3): 1.09
binding signal (ETV3): 1.12

CACTAG
binding signal (ELK3): 0.931
binding signal (ETV3): 0.963

AGATGA
binding signal (ELK3): 1.14
binding signal (ETV3): 1.1

ACAATG
binding signal (ELK3): 1.08
binding signal (ETV3): 1.11

AGTGTT
binding signal (ELK3): 0.975
binding signal (ETV3): 1.08

TTTAAC
binding signal (ELK3): 1.21
binding signal (ETV3): 1.21

GTTCGC
binding signal (ELK3): 0.994
binding signal (ETV3): 0.96

TCGTCA
binding signal (ELK3): 0.975
binding signal (ETV3): 0.99

CGTCTG
binding signal (ELK3): 1.05
binding signal (ETV3): 0.995

AACTTT
binding signal (ETV3): 1.4

GTGCAT
binding signal (ETV3): 1

TGCCTT
binding signal (ETV3): 1.31

GTATTG
binding signal (ELK3): 1.08
binding signal (ETV3): 0.928

CTCCGT
binding signal (ELK3): 1.38
binding signal (ETV3): 1.22

CCTCCA
binding signal (ETV3): 1.24

GGTTCA
binding signal (ELK3): 1.03
binding signal (ETV3): 1.09

CAACGC
binding signal (ELK3): 0.923
binding signal (ETV3): 1

GCTCCC
binding signal (ELK3): 1.18
binding signal (ETV3): 1.21

CAAATC
binding signal (ELK3): 1.01
binding signal (ETV3): 0.999

TAGCTT
binding signal (ETV3): 1.16

TTCTAT
binding signal (ELK3): 1.35
binding signal (ETV3): 1.33

TTCCGC
binding signal (ELK3): 3.03
binding signal (ETV3): 3.37

TTCTCT
binding signal (ETV3): 1.3

ATGGCG
binding signal (ELK3): 1.01
binding signal (ETV3): 1.09

TCTATT
binding signal (ELK3): 1.18
binding signal (ETV3): 1.25

CTCCAG
binding signal (ELK3): 1.29
binding signal (ETV3): 1.23

AATCAG
binding signal (ELK3): 0.98
binding signal (ETV3): 1.07

TAAAAA
binding signal (ELK3): 1.32
binding signal (ETV3): 1.25

GCAATA
binding signal (ELK3): 1
binding signal (ETV3): 1.04

GCAGCT
binding signal (ELK3): 0.959
binding signal (ETV3): 0.973

GCTGCG
binding signal (ELK3): 1.04
binding signal (ETV3): 1.07

CTACCA
binding signal (ELK3): 1.16
binding signal (ETV3): 1.21

GCCCGA
binding signal (ELK3): 0.935
binding signal (ETV3): 1.04

TTGTTC
binding signal (ELK3): 1.39
binding signal (ETV3): 1.52

ACGTCT
binding signal (ETV3): 1.17

CATTCG
binding signal (ELK3): 1.24
binding signal (ETV3): 1.27

TATGTT
binding signal (ELK3): 1.19
binding signal (ETV3): 1.26

TGTACC
binding signal (ETV3): 1.35

AGCATT
binding signal (ELK3): 1.07

GCTAGC
binding signal (ELK3): 1.22
binding signal (ETV3): 1.16

CCCGAT
binding signal (ELK3): 1.06
binding signal (ETV3): 1.21

GTATGG
binding signal (ELK3): 0.951
binding signal (ETV3): 0.978

TCCCGA
binding signal (ELK3): 1.35

TAGTGG
binding signal (ELK3): 1.4
binding signal (ETV3): 1.1

CCTAAG
binding signal (ELK3): 1.17
binding signal (ETV3): 1.06

ATACAT
binding signal (ELK3): 1.32

GGCCTC
binding signal (ELK3): 1.1

AGCACT
binding signal (ELK3): 1.62
binding signal (ETV3): 1.39

GAAGCG
binding signal (ELK3): 1.49

CATACG
binding signal (ELK3): 1.12
binding signal (ETV3): 0.992

CCCAAA
binding signal (ELK3): 1.1

TACTGT
binding signal (ELK3): 1.11
binding signal (ETV3): 1.13

TCTGTG
binding signal (ELK3): 0.999

TTGTTT
binding signal (ELK3): 1.49
binding signal (ETV3): 1.5
